Assay results published in PMC12177104.
No constants are given. Whether binding was seen depends on the method and setting. Binding seen in cells or lysates may run through a third protein. Some binding calls cover weakened binding; strength is not graded here. For part of these data: Sequences can lack the tags named with a protein.

The chains behind the UniProt entries cited, without tags or fusion partners.
UniProt P49841: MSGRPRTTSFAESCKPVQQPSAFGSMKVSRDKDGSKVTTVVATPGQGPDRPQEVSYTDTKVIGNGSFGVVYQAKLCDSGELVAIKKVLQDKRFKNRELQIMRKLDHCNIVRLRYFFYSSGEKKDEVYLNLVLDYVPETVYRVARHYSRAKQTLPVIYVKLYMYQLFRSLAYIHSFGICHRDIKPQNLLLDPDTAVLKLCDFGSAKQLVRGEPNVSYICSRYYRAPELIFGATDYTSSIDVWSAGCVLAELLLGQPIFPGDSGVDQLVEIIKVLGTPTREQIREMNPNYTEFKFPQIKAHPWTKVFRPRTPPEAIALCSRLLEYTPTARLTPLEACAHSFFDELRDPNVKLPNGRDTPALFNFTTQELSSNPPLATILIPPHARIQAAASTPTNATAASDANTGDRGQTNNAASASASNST
UniProt P35579: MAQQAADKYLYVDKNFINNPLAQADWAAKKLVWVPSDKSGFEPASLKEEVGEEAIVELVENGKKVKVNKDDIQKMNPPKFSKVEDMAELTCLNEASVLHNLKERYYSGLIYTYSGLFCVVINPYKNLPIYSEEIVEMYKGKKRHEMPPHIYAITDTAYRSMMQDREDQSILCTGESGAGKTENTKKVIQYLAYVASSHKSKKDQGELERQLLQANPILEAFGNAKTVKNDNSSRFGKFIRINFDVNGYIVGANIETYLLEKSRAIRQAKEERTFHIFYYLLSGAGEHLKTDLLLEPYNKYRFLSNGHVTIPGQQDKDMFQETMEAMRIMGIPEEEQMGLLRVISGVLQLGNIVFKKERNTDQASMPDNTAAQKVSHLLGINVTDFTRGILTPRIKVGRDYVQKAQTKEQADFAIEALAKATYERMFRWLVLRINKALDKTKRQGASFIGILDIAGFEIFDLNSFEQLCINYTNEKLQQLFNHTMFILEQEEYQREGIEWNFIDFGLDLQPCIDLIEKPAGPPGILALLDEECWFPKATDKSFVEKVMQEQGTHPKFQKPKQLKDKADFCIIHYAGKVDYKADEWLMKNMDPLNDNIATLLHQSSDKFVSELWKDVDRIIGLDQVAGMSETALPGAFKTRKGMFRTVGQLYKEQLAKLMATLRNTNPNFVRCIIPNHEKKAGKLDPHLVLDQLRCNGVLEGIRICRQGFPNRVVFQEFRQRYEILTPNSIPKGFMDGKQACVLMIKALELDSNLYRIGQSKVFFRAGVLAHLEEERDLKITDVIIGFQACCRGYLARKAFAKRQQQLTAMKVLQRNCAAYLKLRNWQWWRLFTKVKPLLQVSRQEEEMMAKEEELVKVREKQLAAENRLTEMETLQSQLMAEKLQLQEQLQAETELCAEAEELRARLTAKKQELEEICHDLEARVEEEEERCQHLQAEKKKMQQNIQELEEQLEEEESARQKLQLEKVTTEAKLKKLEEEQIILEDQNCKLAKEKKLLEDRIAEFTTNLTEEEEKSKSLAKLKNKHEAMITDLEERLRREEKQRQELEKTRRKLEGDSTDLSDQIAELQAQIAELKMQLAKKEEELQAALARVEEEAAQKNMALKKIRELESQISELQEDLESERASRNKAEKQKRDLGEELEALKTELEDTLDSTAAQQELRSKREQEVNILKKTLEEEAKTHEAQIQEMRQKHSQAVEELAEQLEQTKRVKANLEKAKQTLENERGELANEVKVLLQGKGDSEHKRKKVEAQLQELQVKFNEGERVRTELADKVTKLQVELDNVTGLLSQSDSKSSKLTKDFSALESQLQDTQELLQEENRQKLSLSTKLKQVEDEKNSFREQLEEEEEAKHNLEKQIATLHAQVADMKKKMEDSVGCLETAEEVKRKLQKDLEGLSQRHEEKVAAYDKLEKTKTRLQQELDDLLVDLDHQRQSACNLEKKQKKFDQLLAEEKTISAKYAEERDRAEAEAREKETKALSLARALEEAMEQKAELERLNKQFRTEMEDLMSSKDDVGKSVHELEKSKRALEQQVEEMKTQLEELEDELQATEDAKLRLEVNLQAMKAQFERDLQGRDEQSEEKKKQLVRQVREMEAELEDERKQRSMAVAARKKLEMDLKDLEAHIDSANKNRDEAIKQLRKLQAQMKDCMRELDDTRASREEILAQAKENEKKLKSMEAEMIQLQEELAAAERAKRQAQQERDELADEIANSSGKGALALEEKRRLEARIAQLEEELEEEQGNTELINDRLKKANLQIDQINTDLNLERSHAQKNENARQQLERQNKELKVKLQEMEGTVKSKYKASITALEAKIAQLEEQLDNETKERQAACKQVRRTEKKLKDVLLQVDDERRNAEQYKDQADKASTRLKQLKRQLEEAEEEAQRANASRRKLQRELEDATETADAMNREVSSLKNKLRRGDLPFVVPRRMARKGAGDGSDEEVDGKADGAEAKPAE

Key:
[1] = target: T1, Phosphoglycerate kinase 1 (PGK1) (UniProt P00558); assay: co-IP; ESCC cell lysates, precipitating antibody not stated (Fig 4L, Fig 5N); EBC lysis buffer, Protein-A Sepharose, NETN washes; immunoblot; also under hypoxia, which the paper says enhanced the PGK1-MYH9 interaction
T1 sequence: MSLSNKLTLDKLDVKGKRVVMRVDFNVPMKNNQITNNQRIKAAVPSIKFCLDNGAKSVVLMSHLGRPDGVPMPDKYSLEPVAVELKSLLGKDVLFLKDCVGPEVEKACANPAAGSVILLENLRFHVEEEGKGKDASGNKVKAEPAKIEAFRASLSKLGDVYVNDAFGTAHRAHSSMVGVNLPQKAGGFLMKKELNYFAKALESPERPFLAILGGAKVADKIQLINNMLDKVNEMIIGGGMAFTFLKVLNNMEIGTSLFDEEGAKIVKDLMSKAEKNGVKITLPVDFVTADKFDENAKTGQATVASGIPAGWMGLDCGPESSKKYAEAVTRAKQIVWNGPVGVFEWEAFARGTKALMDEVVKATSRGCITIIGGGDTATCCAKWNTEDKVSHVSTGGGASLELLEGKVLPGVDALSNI

PGK1-Flag = target: T2, PGK1-Flag (UniProt P00558); assay: co-IP; Flag-tagged constructs in KYSE150 cells; IP with Flag antibodies (stated for Fig 4D, E); lysis in EBC buffer (50 mM Tris-HCl pH 8.0, 120 mM NaCl, 0.5% NP-40), 4 h at 4°C, Protein-A Sepharose, washes in NETN buffer; immunoblot
T2 sequence: T1 sequence

| binding [1] | binding (PGK1-Flag) | Substance |
| --- | --- | --- |
| binds | – | GSK3β (from UniProt P49841 1-420) (enzyme) |
| binds | binds | myosin-9 (MYH9), heavy chain of non-muscle myosin IIA (from UniProt P35579 1-1960) |
